Laboratory results reported in PubChem BioAssay AID248 (DTP/NCI, 2004).
The list does not hold the whole screen: it is rich in T/C values a quarter to a half above the control, in often repeated tests (any T/C) and in doses without a T/C. Further doses and runs are listed elsewhere. T/C: endpoint of the treated group in % of that of the vehicle group. Some entries give survivors of the animals treated and no T/C: the source files T/C as zero there, which appears to mark a toxic dose or a test without result, not a measured value. Some doses without a T/C left all or most animals alive at the check, yet need not have been tolerated: the source hardly ever lists a survival T/C far under the control, and the zero likely stands for such cases as well. Counts of survivors are from the toxicity check (mostly the fifth day) where no day follows; animals may have died later. Schedule codes are those of the source, read here as Q, the interval in days (D) or hours (H), X, the number of doses. Some doses were run more than once; their values stand side by side, smallest first. Some schedule codes hold Z or #, which are not explained here. For survival time, the PubChem record calls one and a half times the control and up active, and a quarter to a half above the control has no call in these data; cut-offs in other NCI protocols can differ.

Test system: L1210 leukemia ip in BDF1 mice, survival T/C
Experiment: NCI In Vivo Anticancer Drug Screen. Data for tumor model L1210 Leukemia (intraperitoneal) in B6D2F1 (BDF1) mice
Conditions: T/C endpoint: mean survival time, higher T/C = longer survival
[1] = dose: 400.0 mg/kg/injection, schedule: Q04DX003 (ip), vehicle: saline with Tween-80
[2] = dose: 100.0 mg/kg/injection, schedule: Q04DX003 (ip), vehicle: saline with Tween-80
[3] = dose: 400.0 mg/kg/injection, schedule: Q01DX009 (ip), vehicle: Klucel (hydroxypropylcellulose) (HPC)
[4] = dose: 100.0 mg/kg/injection, schedule: Q01DX009 (ip), vehicle: Klucel (hydroxypropylcellulose) (HPC)
[5] = dose: 200.0 mg/kg/injection, schedule: Q01DX009 (ip), vehicle: Klucel (hydroxypropylcellulose) (HPC)
[6] = dose: 200.0 mg/kg/injection, schedule: Q01DX009 (ip), vehicle: saline
[7] = dose: 300.0 mg/kg/injection, schedule: Q01DX001 (ip), vehicle: saline
[8] = dose: 400.0 mg/kg/injection, schedule: Q04DX002 (ip), vehicle: Klucel (hydroxypropylcellulose) (HPC)
[9] = dose: 50.0 mg/kg/injection, schedule: Q01DX009 (ip), vehicle: saline
[10] = dose: 200.0 mg/kg/injection, schedule: Q04DX003 (ip), vehicle: saline
[11] = dose: 400.0 mg/kg/injection, schedule: Q04DX003 (ip), vehicle: saline
[12] = dose: 300.0 mg/kg/injection, schedule: Q01DX001 (ip), vehicle: other
[13] = dose: 200.0 mg/kg/injection, schedule: Q04DX002 (ip), vehicle: Klucel (hydroxypropylcellulose) (HPC)
[14] = dose: 75.0 mg/kg/injection, schedule: Q01DX001 (ip), vehicle: saline
[15] = dose: 150.0 mg/kg/injection, schedule: Q01DX001 (ip), vehicle: saline

CC(O)C[As](=O)(O)c1ccccc1 (centres undefined) was tested, and the survivor count (dose: 50.0 mg/kg/injection, schedule: Q04DX002 (ip), vehicle: saline) was 2 of 3, the survivor count (dose: 100.0 mg/kg/injection, schedule: Q04DX002 (ip), vehicle: saline) was 0 of 3 and the survivor count (dose: 200.0 mg/kg/injection, schedule: Q04DX002 (ip), vehicle: saline) was 0 of 3. The survivor count (dose: 400.0 mg/kg/injection, schedule: Q04DX002 (ip), vehicle: saline) was 0 of 3.

For COCCOC(C)C(=O)C(O)S(=O)(=O)O (centres undefined), the survivor count (dose: 63.0 mg/kg/injection, schedule: Q01DX Z (oral), vehicle: saline) was 7 of 7, the survivor count (dose: 125.0 mg/kg/injection, schedule: Q01DX Z (oral), vehicle: saline) was 7 of 7 and the survivor count (dose: 250.0 mg/kg/injection, schedule: Q01DX Z (oral), vehicle: saline) was 7 of 7.

COc1ccc(NC(=O)Nc2ccccc2Cl)c(OC)c1 was tested, and the survivor count (dose: 200.0 mg/kg/injection, schedule: Q04DX002 (ip), vehicle: saline with Tween-80) was 3 of 3.

CN(C)CCN=C(Nc1ccccn1)Nc1ccccn1 was tested, and the survivor count (dose: 200.0 mg/kg/injection, schedule: Q01DX001 (ip), vehicle: saline) was 1 of 6 and the survivor count (dose: 400.0 mg/kg/injection, schedule: Q01DX001 (ip), vehicle: saline) was 0 of 6.

In the case of CCCCCCOP1(=O)C=C(C)CC1 (centres undefined), the survivor count [1] is reported as 2 of 6.

For O=S(=O)([O][Hg][CH2]C1Cc2ccccc2O1)[O][Hg][CH2]C1Cc2ccccc2O1 (centres undefined), the survivor count [2] was 0 of 6, the survivor count (dose: 200.0 mg/kg/injection, schedule: Q04DX003 (ip), vehicle: saline with Tween-80) was 0 of 6 and the survivor count [1] was 0 of 6.

With COc1ccccc1NC(=S)Nc1ccccc1OC the survivor count [3] was 3 of 6.

With Nc1ccc(Cl)cc1-c1ccccc1 the T/C (dose: 83.0 mg/kg/injection, schedule: Q01DX Z (ip), vehicle: saline) was 125 % of control.

C(=Nc1ccncc1)c1c[nH]c2ccccc12 was tested, and the survivor count [4] was 0 of 6, the survivor count [5] was 0 of 6 and the survivor count [3] was 0 of 6.

In the case of [Cu+2].[NH-]C1C(Cl)CCC2C(Cl)CC[N-]C12 (centres undefined), the survivor count (dose: 25.0 mg/kg/injection, schedule: Q04DX003 (ip), vehicle: Klucel (hydroxypropylcellulose) (HPC)) is reported as 2 of 6 and the survivor count (dose: 50.0 mg/kg/injection, schedule: Q01DX001 (ip), vehicle: other) is reported as 2 of 6.

N#CCCOCC(COCCC#N)OCCC#N was tested, and the T/C [6] was 131 % of control.

For CC1=CC(=O)C=CC1(C)C(Cl)(Cl)Cl (centres undefined), the survivor count [3] was 0 of 5.

With Oc1ccccc1CNCc1ccccc1O the survivor count [7] was 0 of 6.

With CCCCC(C#N)(CCCC)C(=O)OCC the survivor count [1] was 5 of 5.

For COc1ccc([N+](=O)[O-])cc1NC(=O)Nc1cc(C)on1, the survivor count [8] was 3 of 3.

With O=C(CC(=O)C(F)(F)C(F)(F)C(F)(F)F)C(F)(F)F the survivor count [9] was 0 of 6, the survivor count (dose: 100.0 mg/kg/injection, schedule: Q04DX003 (ip), vehicle: saline) was 0 of 6 and the survivor count [10] was 0 of 6. For the same compound, the survivor count [11] was 0 of 6.

For CCCCCCCCC(C)NCCOC(=O)c1ccc([N+](=O)[O-])cc1 (centres undefined), the survivor count [12] was 1 of 6.

Nc1nc(N)nc(Nc2ccc([As]=O)cc2)n1 (centres undefined) was tested, and the survivor count [4] was 5 of 6, the survivor count [5] was 6 of 6 and the survivor count [3] was 0 of 6.

For O=C(Nc1ccc(C2=NCCN2)cc1)c1cc(Cl)c(C(=O)Nc2ccc(C3=NCCN3)cc2)cc1Cl, the T/C (dose: 30.0 mg/kg/injection, schedule: Q01DX Z (ip), vehicle: carboxymethylcellulose (CMC)) was 138 % of control.

For CSc1nn[nH]n1, the survivor count [10] was 3 of 6 and the survivor count (dose: 400.0 mg/kg/injection, schedule: Q01DX001 (ip), vehicle: acetone) was 0 of 6.

With CCOC(=O)c1ccc(N=NNc2ccc(C(=O)OCC)cc2)cc1 the survivor count (dose: 100.0 mg/kg/injection, schedule: Q01DX Z (ip), vehicle: other) was 6 of 6 and the survivor count (dose: 300.0 mg/kg/injection, schedule: Q01DX Z (ip), vehicle: other) was 6 of 6.

For CC(C)=NOS(=O)(=O)c1c(C)cc(C)cc1C, the survivor count [13] was 3 of 3.

O=[As](O)(O)CCCc1ccccc1 was tested, and the survivor count (dose: 25.0 mg/kg/injection, schedule: Q01DX009 (ip), vehicle: Klucel (hydroxypropylcellulose) (HPC)) was 1 of 3.

With COc1ccc(C(C#N)N2CCCC2)cc1 (centres undefined) the survivor count (dose: 25.0 mg/kg/injection, schedule: Q01DX009 (ip), vehicle: other) was 6 of 6, the survivor count (dose: 100.0 mg/kg/injection, schedule: Q04DX003 (ip), vehicle: other) was 0 of 6 and the survivor count (dose: 200.0 mg/kg/injection, schedule: Q04DX003 (ip), vehicle: other) was 0 of 6. The survivor count (dose: 400.0 mg/kg/injection, schedule: Q04DX003 (ip), vehicle: other) was 0 of 6.

In the case of CCC(C#N)C1C=CCCC1 (centres undefined), the survivor count [12] is reported as 3 of 6.

In the case of CSc1ccc(OC(=O)Nc2ccc(Cl)cc2)cc1C, the survivor count (dose: 400.0 mg/kg/injection, schedule: Q01DX009 (ip), vehicle: carboxymethylcellulose (CMC)) is reported as 3 of 3 and 6 of 6.

For CCCNC(C)(C)C(SSSC(c1ccc(C(F)(F)F)cc1)C(C)(C)NCCC)c1ccc(C(F)(F)F)cc1 (centres undefined), the survivor count (dose: 400.0 mg/kg/injection, schedule: Q01DX009 (ip), vehicle: saline with Tween-80) was 2 of 6.

O=C(O)/C=C/C(=O)Nc1ccc([N+](=O)[O-])c(C(F)(F)F)c1 was tested, and the survivor count [3] was 0 of 6.

In the case of C=CCNC(=S)Nc1ccccc1C=O, the survivor count [13] is reported as 0 of 3 and the survivor count [8] is reported as 0 of 3.

In the case of O=C(Nc1cccc([N+](=O)[O-])c1)c1ccc(Cl)c(Cl)c1, the survivor count [2] is reported as 3 of 3.

For Cc1cc([N+](=O)[O-])cc([N+](=O)[O-])c1OC(=O)c1ccc(N=C(N)N)cc1, the survivor count (dose: 25.0 mg/kg/injection, schedule: Q01DX009 (ip), vehicle: saline) was 3 of 6, the survivor count [9] was 6 of 6 and the survivor count (dose: 100.0 mg/kg/injection, schedule: Q01DX009 (ip), vehicle: saline) was 6 of 6. For the same compound, the survivor count [6] was 1 of 6 and 2 of 6, the survivor count [10] was 6 of 6 and the survivor count (dose: 400.0 mg/kg/injection, schedule: Q01DX009 (ip), vehicle: saline) was 0 of 6. The survivor count [11] was 1 of 6.

For O=C1C(Cl)=C(N2CC2)C(=O)c2ccccc21, the survivor count (dose: 10.0 mg/kg/injection, schedule: Q01DX009 (ip), vehicle: Klucel (hydroxypropylcellulose) (HPC)) was 4 of 6.

CCCCCCCCCC[n+]1ccc(C#N)cc1 was tested, and the survivor count [14] was 0 of 6, the survivor count [15] was 0 of 6 and the survivor count [7] was 0 of 6.

ClC(Cl)=[C](Cl)[Hg][C](Cl)=C(Cl)Cl was tested, and the survivor count (dose: 3.13 mg/kg/injection, schedule: Q01DX009 (ip), vehicle: saline with Tween-80) was 5 of 6 and the survivor count (dose: 6.25 mg/kg/injection, schedule: Q01DX009 (ip), vehicle: saline with Tween-80) was 4 of 6.

In the case of CC[N+](C)(CC)CCCNC(c1ccc(Cl)cc1)C(Cl)(Cl)Cl (centres undefined), the survivor count [14] is reported as 0 of 6, the survivor count [15] is reported as 0 of 6 and the survivor count [7] is reported as 0 of 6.

Nc1cccc2c1C(=O)C=CC2=O was tested, and the survivor count (dose: 6.25 mg/kg/injection, schedule: Q04DX003 (ip), vehicle: saline) was 5 of 6, the survivor count (dose: 7.0 mg/kg/injection, schedule: Q01DX009 (ip), vehicle: saline) was 6 of 6 and the survivor count (dose: 10.0 mg/kg/injection, schedule: Q01DX009 (ip), vehicle: saline) was 5 of 6. The survivor count (dose: 12.5 mg/kg/injection, schedule: Q04DX003 (ip), vehicle: acetone) was 3 of 6, the survivor count (dose: 25.0 mg/kg/injection, schedule: Q04DX003 (ip), vehicle: acetone) was 4 of 6 and the survivor count (dose: 50.0 mg/kg/injection, schedule: Q04DX003 (ip), vehicle: acetone) was 0 of 6.
